Test results as given in PMC10350187.
No constants are given. Whether binding was seen depends on the method and setting. In cells and extracts the contact can be indirect. Some results given as binding are weak or reduced against the parent protein; the word gives no strength.

Sequences of proteins named here, by UniProt entry; tags and fusion partners are left off.
UniProt P29375: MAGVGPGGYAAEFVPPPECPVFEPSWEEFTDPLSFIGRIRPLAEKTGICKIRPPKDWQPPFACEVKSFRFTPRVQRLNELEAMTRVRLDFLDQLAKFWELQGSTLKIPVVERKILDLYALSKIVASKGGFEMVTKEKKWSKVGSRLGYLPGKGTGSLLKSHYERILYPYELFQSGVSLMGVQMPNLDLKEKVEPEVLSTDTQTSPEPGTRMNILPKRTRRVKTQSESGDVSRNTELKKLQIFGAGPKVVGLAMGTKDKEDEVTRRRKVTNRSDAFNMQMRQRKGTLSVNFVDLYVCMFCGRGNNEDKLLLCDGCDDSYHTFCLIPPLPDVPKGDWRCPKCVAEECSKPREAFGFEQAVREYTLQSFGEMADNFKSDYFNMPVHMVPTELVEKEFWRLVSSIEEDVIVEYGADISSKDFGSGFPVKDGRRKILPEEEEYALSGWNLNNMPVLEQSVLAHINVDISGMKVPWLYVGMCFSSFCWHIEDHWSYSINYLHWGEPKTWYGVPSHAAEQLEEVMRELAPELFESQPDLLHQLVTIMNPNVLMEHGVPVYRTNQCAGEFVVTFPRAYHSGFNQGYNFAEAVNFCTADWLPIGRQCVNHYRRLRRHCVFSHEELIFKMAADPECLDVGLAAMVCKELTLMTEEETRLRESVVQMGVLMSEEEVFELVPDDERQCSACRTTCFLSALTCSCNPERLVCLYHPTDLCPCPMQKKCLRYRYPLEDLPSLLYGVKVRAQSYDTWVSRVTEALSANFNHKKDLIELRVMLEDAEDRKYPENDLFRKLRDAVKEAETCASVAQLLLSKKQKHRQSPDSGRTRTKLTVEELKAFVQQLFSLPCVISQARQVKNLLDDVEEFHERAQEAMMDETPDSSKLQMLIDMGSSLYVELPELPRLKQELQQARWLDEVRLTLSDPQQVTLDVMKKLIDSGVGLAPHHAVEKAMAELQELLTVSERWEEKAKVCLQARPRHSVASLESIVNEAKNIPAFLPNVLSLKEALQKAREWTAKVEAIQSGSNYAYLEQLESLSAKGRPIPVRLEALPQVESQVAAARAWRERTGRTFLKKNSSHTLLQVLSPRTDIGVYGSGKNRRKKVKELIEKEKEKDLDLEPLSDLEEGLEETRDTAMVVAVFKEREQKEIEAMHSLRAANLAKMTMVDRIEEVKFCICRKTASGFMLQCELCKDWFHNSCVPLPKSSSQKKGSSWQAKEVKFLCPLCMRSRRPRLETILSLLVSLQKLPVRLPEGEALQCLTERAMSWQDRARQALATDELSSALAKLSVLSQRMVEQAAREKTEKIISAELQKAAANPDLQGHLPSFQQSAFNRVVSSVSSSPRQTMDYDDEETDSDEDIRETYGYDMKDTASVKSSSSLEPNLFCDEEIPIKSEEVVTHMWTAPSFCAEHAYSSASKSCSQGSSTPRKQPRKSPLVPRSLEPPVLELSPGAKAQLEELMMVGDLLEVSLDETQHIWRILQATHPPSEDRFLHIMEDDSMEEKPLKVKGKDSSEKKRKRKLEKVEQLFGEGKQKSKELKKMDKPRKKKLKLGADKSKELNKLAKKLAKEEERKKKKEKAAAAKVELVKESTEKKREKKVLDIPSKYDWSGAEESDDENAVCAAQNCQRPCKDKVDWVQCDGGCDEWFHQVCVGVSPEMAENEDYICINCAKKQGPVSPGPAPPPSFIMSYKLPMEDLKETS

Columns and labels:
[1] = target: histone H3K4 demethylase JARID1A (human (endogenous in K562)) (UniProt P29375); assay: co-IP; whole cell extracts (total cell lysates) of K562 RepID WT and KO cells, proliferating or PMA-treated for 48 hours; immunoprecipitation with anti-CUL4A or anti-JARID1A (3 ug per sample, 14 h at 4°C), Sepharose beads 2 h, washed three times with PBS; immunoblotting
[2] = target: CUL4A (human (endogenous in K562)) (UniProt Q13619); assay: as above

Row | binding [1] | binding [2] | Substance
1 | binds | – | CUL4A (from UniProt Q13619 1-759)
2 | – | binds | Replication origin binding protein (RepID) (from UniProt Q8WWQ0 1-1821)
